Where a name gives a salt, the structure may show the parent alone. Some of the results follow. Single values are uncertain, as repeats are few or missing.
These compounds were tested on hsa-miR-132-3p (assay: miR-132-3p level in NGN2-iNs after compound treatment (TMM-normalised, ComBat batch-corrected) (batch-corrected normalised expression (arbitrary units)); higher = higher miR-132-3p expression). Details: 10 µM; 24 h; human iPSC-derived NGN2 neurons (BR43).

| Structure (SMILES) | miR-132-3p level in NGN2-iNs |
| --- | --- |
| COC(=O)[C@@H]1[C@H]2C[C@H]3c4[nH]c5ccccc5c4CCN3C[C@@H]2CC[C@@H]1O [Yohimbine HCl] | -0.796 |
| CN(C)CCSSCCNC(=O)C1CCN(C(=O)CSc2ccc(Cl)cc2)CC1 | 0.749 |
| CC(C)C[C@H](NC(=O)[C@H]1O[C@@H]1C(=O)O)C(=O)NCCCCN=C(N)N | 1.44 |
| CN(C)Cc1ccc(-c2nc3cccc4c3n2CCNC4=O)cc1 | -1.22 |
| O=C(/C=C\n1cnc(-c2cc(C(F)(F)F)cc(C(F)(F)F)c2)n1)NNc1cnccn1 [Selinexor (KPT-330)] | 0.74 |
| Cc1coc2c1C(=O)C(=O)c1c-2ccc2c(C)cccc12 [Tanshinone I] | 0.858 |
| CCC1=C(C)CN(C(=O)NCCc2ccc(S(=O)(=O)NC(=O)N[C@H]3CC[C@H](C)CC3)cc2)C1=O [Glimepiride] | 0.252 |
| Cc1ccccc1-n1c(Cn2nc(-c3cccc(O)c3)c3c(N)ncnc32)nc2cccc(C)c2c1=O | -2.28 |
| C[C@@]12C[C@@]3(O)O[C@@H](O1)[C@]1(COC(=O)c4ccccc4)[C@H]3C[C@@]12O[C@@H]1O[C@H](CO)[C@@H](O)[C@H](O)[C@H]1O [Paeoniflorin] | -0.599 |
| O=C1CCc2cc(OCCCCc3nnnn3C3CCCCC3)ccc2N1 [Cilostazol] | -0.142 |
| CCS(=O)(=O)CCn1c([N+](=O)[O-])cnc1C [Tinidazole] | -1.04 |
| N#C[C@@H]1C[C@@H]2C[C@@H]2N1C(=O)[C@@H](N)C12CC3CC(CC(O)(C3)C1)C2 [Saxagliptin] | -2.81 |
| CCCCOc1cc(C(=O)NCCN(CC)CC)c2ccccc2n1 [Dibucaine HCl] | 0.171 |
| COc1ccc2cc1Oc1ccc(cc1)C[C@H]1c3cc(c(OC)cc3CCN1C)Oc1c(OC)c(OC)cc3c1[C@H](C2)N(C)CC3 [Tetrandrine] | 0.691 |
| Nc1ncnc2c1c(-c1cnc3[nH]ccc3c1)nn2C1CCCC1 | 0.924 |
| Cc1cc(OCCCS(C)(=O)=O)cc(C)c1-c1cccc(COc2ccc3c(c2)OCC3CC(=O)O)c1 (stereo not drawn) [Fasiglifam(TAK-875) Hemihydrate] | -0.0477 |
| CCCCOc1c(C(=O)c2c(F)cc(C)cc2F)c[nH]c2nncc1-2 | -0.681 |
| N=C(N)NC(=O)c1nc(Cl)c(N)nc1N [Amiloride HCl] | 0.591 |
| CN(C)C(=O)COC(=O)Cc1ccc(OC(=O)c2ccc(NC(=N)N)cc2)cc1 [Camostat Mesilate] | -1.3 |

| Structure (SMILES) | miR-132-3p level in NGN2-iNs |
| --- | --- |
| C[C@H]1COC2=C1C(=O)C(=O)c1c2ccc2c1CCCC2(C)C [Cryptotanshinone] | -0.982 |
| NC(=O)Cc1cccc(C(=O)c2ccccc2)c1N [Nepafenac] | 0.939 |
| CC[C@H]1OC(=O)[C@H](C)[C@@H](O[C@H]2C[C@@](C)(OC)[C@@H](O)[C@H](C)O2)[C@H](C)[C@@H](O[C@@H]2O[C@H](C)C[C@H](N(C)C)[C@H]2O)[C@](C)(OC)C[C@@H](C)C(=O)[C@H](C)[C@@H](O)[C@]1(C)O [Clarithromycin] | -0.322 |
| NS(=O)(=O)c1cc2c(cc1Cl)N=CNS2(=O)=O [Chlorothiazide] | -0.622 |
| O=c1c(O)c(-c2ccc(O)c(O)c2)oc2cc(O)ccc12 [Fisetin] | 0.134 |
| COc1cc2ncnc(Oc3cccc(NC(=O)Nc4cc(C(C)(C)C(F)(F)F)on4)c3)c2cc1OC [Agerafenib (RXDX-105)] | -0.512 |
| COc1ccc(-c2nc3cc(C4=NNC(=O)CC4C)ccc3[nH]2)cc1 (stereo not drawn) [Pimobendan] | 0.0478 |
| Cc1ccc(S(=O)(=O)n2c(N)nc3ccccc32)cc1 [Nodinitib-1] | 1.74 |
| NC(=O)c1ncn([C@@H]2O[C@H](CO)[C@@H](O)[C@H]2O)n1 [Ribavirin] | 1.78 |
| CCOC(=O)[C@H](CCc1ccccc1)N[C@@H](C)C(=O)N1[C@H](C(=O)O)C[C@@H]2CCC[C@@H]21 [Ramipril] | -0.222 |
| CCc1cncnc1N1CCN(Cc2nc3ccc(C(F)(F)F)cc3[nH]2)CC1 | -2.37 |
| CC1=C(C(=O)OC(C)C)C(c2cccc([N+](=O)[O-])c2)C(C(=O)OC2CN(C(c3ccccc3)c3ccccc3)C2)=C(N)N1 (stereo not drawn) [Azelnidipine] | 0.358 |
| Cc1cc(C2CCCCC2)n(O)c(=O)c1 [Ciclopirox ethanolamine] | 1.58 |
| Cc1cc(C2CCCCC2)n(O)c(=O)c1 [Ciclopirox] | -0.718 |
| COc1cc(C(=O)NS(=O)(=O)c2ccccc2C)ccc1Cc1cn(C)c2ccc(NC(=O)OC3CCCC3)cc12 [Zafirlukast] | 0.601 |
| CN[C@H]1CN(c2ccc3c(=O)c(C(=O)O)cn(-c4nccs4)c3n2)C[C@@H]1OC [Voreloxin (SNS-595) hydrochloride] | 0.707 |
| CN1C(C(=O)Nc2ccccn2)=C(O)c2sccc2S1(=O)=O [Tenoxicam] | -0.447 |
| N#Cc1ccc2[nH]cc(CCCCN3CCN(c4ccc5oc(C(N)=O)cc5c4)CC3)c2c1 [Vilazodone HCl] | -0.101 |
| CCc1nc(-c2cccc(C)c2)c(-c2ccnc(NC(=O)c3ccccc3)c2)s1 | -0.676 |

Reformatted: entries from further up.
Structure (SMILES) | miR-132-3p level in NGN2-iNs
CN(C)Cc1ccc(-c2nc3cccc4c3n2CCNC4=O)cc1 | -1.22
O=C(/C=C\n1cnc(-c2cc(C(F)(F)F)cc(C(F)(F)F)c2)n1)NNc1cnccn1 [Selinexor (KPT-330)] | 0.74
Cc1coc2c1C(=O)C(=O)c1c-2ccc2c(C)cccc12 [Tanshinone I] | 0.858
CCC1=C(C)CN(C(=O)NCCc2ccc(S(=O)(=O)NC(=O)N[C@H]3CC[C@H](C)CC3)cc2)C1=O [Glimepiride] | 0.252
Cc1ccccc1-n1c(Cn2nc(-c3cccc(O)c3)c3c(N)ncnc32)nc2cccc(C)c2c1=O | -2.28
C[C@@]12C[C@@]3(O)O[C@@H](O1)[C@]1(COC(=O)c4ccccc4)[C@H]3C[C@@]12O[C@@H]1O[C@H](CO)[C@@H](O)[C@H](O)[C@H]1O [Paeoniflorin] | -0.599
